The supplement of paper PMC10300260
This is one part of the list. Repeats are few or missing, and single values can be far off.

System: TcK2 kinase domain KD5 (eIF2alpha kinase TcYC6_0089220, Trypanosoma cruzi)
Test: thermal shift (delta Tm vs DMSO); higher = stronger stabilisation / binding
Settings: compound: 2 ul of 1 mM stock per well; protein concentration: 2 uM

| SMILES | thermal shift [°C] |
| --- | --- |
| N#Cc1c(O)c2c(-c3ccc(-c4ccccc4O)cc3)csc2[nH]c1=O | -0.0351 |
| O=C(/C=C/c1ccc2ccccc2n1)c1ccncc1 | -2.3 |
| N#CC(=C(/N)Sc1ccccc1N)/C(C#N)=C(\N)Sc1ccccc1N | -0.405 |
| CCN(CCCOc1ccc2c(Nc3cc(CC(=O)Nc4cccc(F)c4)[nH]n3)ncnc2c1)CCOP(=O)(O)O [Barasertib (AZD1152-HQPA)] | 0.494 |
| Cc1ccccc1-n1c(Cn2nc(-c3cccc(O)c3)c3c(N)ncnc32)nc2cccc(C)c2c1=O | -0.166 |
| CC(C)c1cnn2c(NCc3ccccc3)cc(NCCCCCCN)nc12 | -0.123 |
| COc1cc(Nc2nc3ccccc3nc2NS(=O)(=O)c2ccc(NC(=O)c3ccc(C)c(OC)c3)cc2)cc(OC)c1 | -0.169 |
| Cn1cc(-c2cnn3c(N)c(Br)c([C@@H]4CCCNC4)nc23)cn1 | 0.254 |
| CCc1ccc(/C=C2/SC(=S)NC2=O)cc1 | -0.548 |
